No constants are given. Whether binding was seen depends on the method and setting. Binding can be weak; no strength is given.
Target: T1, yeast Sdo1, full-length, two-hybrid bait (yeast (S. cerevisiae)) (UniProt Q07953)
T1 sequence: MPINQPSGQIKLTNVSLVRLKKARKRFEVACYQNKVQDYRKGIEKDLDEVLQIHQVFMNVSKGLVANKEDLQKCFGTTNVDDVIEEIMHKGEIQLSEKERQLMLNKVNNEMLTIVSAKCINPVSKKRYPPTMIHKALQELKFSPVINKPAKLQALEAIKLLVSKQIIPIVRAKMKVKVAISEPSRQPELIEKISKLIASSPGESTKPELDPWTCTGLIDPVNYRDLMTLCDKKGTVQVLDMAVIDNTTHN
Assay: two-hybrid; yeast two-hybrid; Sdo1 full-length or domains 2-3 as bait, domains of yeast EFL1 as the other fusion

Substance | binding
yeast EFL1 domain I, two-hybrid fusion (domain or fragment) | no binding
yeast EFL1 domain II, two-hybrid fusion (domain or fragment) | binds
yeast EFL1 domains I-II, two-hybrid fusion (domain or fragment) | binds
